Data on one molecule can be found in article PMC6896144.

No constants are given. Whether binding was seen depends on the method and setting. In cells and extracts the contact can be indirect. Binding can be weak; no strength is given. Tags and fused reporters may be left off the sequences shown.

The test deals with S127A-FLAG (UniProt P46937). Put plainly: co-IP; HCT116 co-transfected with DUSP10-V5 and a YAP-FLAG plasmid. Cells were cross-linked with 2 mM DSP for 30 min, then lysed in RIPA buffer. Anti-FLAG (or normal IgG) and protein A/G agarose at 4 °C, then immunoblot. (In general: In western blotting, separated proteins are transferred to a membrane and probed.)

B1: DUSP10-WT-V5 (enzyme, UniProt Q9Y6W6 1-482)
chain: MPPSPLDDRVVVALSRPVRPQDLNLCLDSSYLGSANPGSNSHPPVIATTVVSLKAANLTYMPSSSGSARSLNCGCSSASCCTVATYDKDNQAQTQAIAAGTTTTAIGTSTTCPANQMVNNNENTGSLSPSSGVGSPVSGTPKQLASIKIIYPNDLAKKMTKCSKSHLPSQGPVIIDCRPFMEYNKSHIQGAVHINCADKISRRRLQQGKITVLDLISCREGKDSFKRIFSKEIIVYDENTNEPSRVMPSQPLHIVLESLKREGKEPLVLKGGLSSFKQNHENLCDNSLQLQECREVGGGASAASSLLPQPIPTTPDIENAELTPILPFLFLGNEQDAQDLDTMQRLNIGYVINVTTHLPLYHYEKGLFNYKRLPATDSNKQNLRQYFEEAFEFIEEAHQCGKGLLIHCQAGVSRSATIVIAYLMKHTRMTMTDAYKFVKGKRPIISPNLNFMGQLLEFEEDLNNGVTPRILTPKLMGVETVV
B1: the binding entry is reported as “binds”.
